Test results reported in US20060234373A1, “Treatment for diabetes” (priority 2002, published 2006).
At least one structure is not confirmed: it was looked up by name or label, or the drawing left a doubt.

Tested on: NOD mice with chronic insulin-dependent diabetes
Experiment: Fasting blood glucose and survival in NOD mice with chronic insulin-dependent diabetes
Assay type: in vivo, mouse
Conditions: G1 1, 5, 10 μg/kg/day i.p. twice daily 28 days; insulin stopped day 14; all vehicle animals died

Compound: CSCC[C@@H](NC(=O)[C@@H](Cc1c[nH]c2ccccc12)NC(=O)CNC(=O)[C@@H](Cc1ccc(O)cc1)NC(=O)[C@@H](C)NC(=O)[C@@H](CCC(=O)O)NC(=O)[C@@H](CCC(=O)O)NC(=O)[C@@H](CCC(=O)O)NC(=O)[C@H](CCC(=O)O)NC(=O)[C@H](CCC(=O)O)NC(=O)[C@H](CC(C)C)NC(=O)[C@H](Cc1c[nH]c2ccccc12)NC(=O)[C@@H]1CCCN1C(=O)CNC(=O)[C@@H](N)CCC(=O)O)C(=O)N[C@H](CC(=O)O)C(=O)N[C@H](Cc1ccccc1)C(N)=O [G1]
- survival after cessation of insulin therapy: survived without insulin treatment for 2 weeks
